The other results are listed elsewhere or left out. These are further read-outs of the screen, such as a control signal, another cell line or another target. No call is given for them. Compounds called inactive in the main read-out are mostly missing here. Potencies come from curve fits of mixed quality, noted in brackets.
Assay: qHTS Assay for Identifying the Cell-Membrane Permeable IMPase Inhibitors
Conditions: CHO-M1 cells, IP1 accumulation, HTRF TR-FRET ratio; measured here: donor channel 620 nm AC50

Row | Compound | AC50
1 | CCC(C)(C)NC(=O)CN(C(=O)CNS(=O)(=O)c1ccccc1)c1ccccc1 | 5.01 µM [falling, single point]
2 | CC(OC(=O)c1cc2sccc2n1C)C(=O)NCc1ccc2c(c1)OCO2 (configuration not stated) | 25.1 µM [falling, single point]
3 | CN(C)CCCN1C(=O)C(O)=C(C(=O)c2cc3ccccc3o2)C1c1ccccc1 (configuration not stated) | 15.8 µM [rising, single point]
4 | COCc1cc(C)nc2sc(C(=O)OC(C)C)c(N)c12 | 15.8 µM [rising, single point]
5 | Cc1ccn2cc(CCNS(=O)(=O)c3ccc(F)c(C(F)(F)F)c3)nc2c1 | 0.158 µM [falling, full curve, poor fit]
6 | CCn1c2ccccc2c2cc(NC(=O)N3CCOCC3)ccc21 | 0.282 µM [falling, full curve, poor fit]
7 | Cc1ccc(C)c(N2CCN(Cc3nnc(-c4ccc5c(c4)OCO5)o3)CC2)c1 | 5.62 µM [falling, full curve]
8 | COc1ccc(S(=O)(=O)NCCSc2ccc(Cl)cc2)cc1OC | 1 µM [falling, single point]
9 | O=C(CSc1nnc(NC(=O)CN2CCOCC2)s1)Nc1ccccc1 | 6.31 µM [falling, single point]
10 | CC(OC(=O)c1snc(C(=O)NC2CCCCC2)c1N)C(=O)NC1CCCCC1 (configuration not stated) | 15.8 µM [falling, single point]
11 | Cc1ccn2c(/C=N/OCc3ccc(F)cc3)c(-c3ccc(Cl)cc3)nc2c1 | 2 µM [rising, full curve]
12 | CCOC(=O)CSc1nc2ccccc2n1CC(=O)N(C(C)C)C(C)C | 5.01 µM [rising, full curve, poor fit]
13 | Cc1cccc(Oc2ncnc3onc(C)c23)c1C | 3.16 µM [falling, partial curve, poor fit]
14 | CC(C)(C)n1ncc2c(=O)n(CC(=O)NCc3ccccc3)cnc21 | 15.8 µM [falling, single point]
15 | COc1ccc(S(=O)(=O)NCCCO)cc1-c1nnc2c3ccccc3c(C)nn12 | 0.0126 µM [falling, full curve, poor fit]
16 | O=C(Cn1nnc(-c2ccc(Cl)cc2)n1)NC1CCN(Cc2ccccc2)CC1 | 0.398 µM [falling, full curve, poor fit]
17 | O=c1oc(-c2ccccc2)nc2ccsc12 | 6.31 µM [falling, partial curve, poor fit]
18 | CCOC(=O)c1nc(Nc2ccc(C(C)=O)cc2)c2ccccc2n1 | 25.1 µM [rising, single point]
19 | CCOc1ccc(/C(O)=C2/C(=O)C(=O)N(CCOCCO)C2c2cccnc2)cc1 (configuration not stated) | 12.6 µM [rising, partial curve]
20 | CCCCNC(=O)CN1C(=O)C(CC)Oc2ccc(Cl)cc21 (configuration not stated) | 3.16 µM [rising, full curve]
21 | CCn1cc(C(=O)NCc2ccco2)c(=O)c2cc(S(=O)(=O)N3CCc4ccccc4C3)ccc21 | 0.158 µM [rising, full curve, poor fit]
22 | CCCC1(c2ccccc2)NC(=O)N(CC(=O)Nc2sc(-c3ccccc3)cc2C(=O)OCC)C1=O (configuration not stated) | 12.6 µM [rising, single point]
23 | COc1cccc(Cn2c(Oc3cc(C)cc(C)c3)nc3c2c(=O)n(C)c(=O)n3C)c1 | 31.6 µM [rising, single point]

Row | Compound | AC50
24 | c1ccc(C(c2ccccc2)c2nc(-c3cccnc3)no2)cc1 | 12.6 µM [rising, single point]
25 | CCOc1ccc(NC(=O)CSc2nc3ccccc3c(=O)n2CCCC(=O)N2CCCC2)cc1 | 3.16 µM [rising, full curve]
26 | COc1ccc(NC(=O)CCCSc2nc(-c3ccco3)cc(C(F)(F)F)n2)cc1OC | 0.126 µM [rising, partial curve]
27 | COc1cccc(-c2nc(S(=O)(=O)c3ccc(Cl)cc3)c(NCc3ccccc3)o2)c1 | 1.41 µM [falling, full curve, poor fit]
28 | CC(=O)c1sc(Nc2ccccn2)nc1C | 12.6 µM [rising, partial curve]
29 | O=c1[nH]c(NCCCO)nc2c1C1(CCCC1)Cc1ccccc1-2 | 31.6 µM [rising, single point]
30 | CCn1c(N2CCN(C(=O)NC3CCCCC3)CC2)nc2ccccc21 | 31.6 µM [falling, single point]
31 | Cc1cc(C)n(C2=NS(=O)(=O)c3ccccc32)n1 | 6.31 µM [rising, single point]
32 | COc1ccccc1NC(=O)C1=C(C)Nc2nc(CCCO)nn2C1c1cccc(O)c1 (configuration not stated) | 11.2 µM [falling, partial curve]
33 | COc1ccc(-c2cc(C)nc3nc(N)nn23)cc1 | 0.0631 µM [falling, full curve]
34 | CCCOc1cc(C)nc(-c2ccccc2O)n1 | 0.00398 µM [falling, full curve, poor fit]
35 | O=C1CCCc2nn(-c3ccccc3)c(-c3ccncc3)c21 | 0.00398 µM [falling, full curve, poor fit]
36 | O=C(NCCCc1ccccc1)Nc1cccc(Cl)c1 | 11.2 µM [falling, single point]
37 | CCNC(=O)CCc1nc(-c2ccc(C(C)(C)C)cc2)no1 | 25.1 µM [falling, single point]
38 | CCCCSC1(SCCCC)N=C(N)C2(C#N)C(c3ccccc3)NC(C)=C(C)C12C#N (configuration not stated) | 0.0158 µM [rising, full curve, poor fit]
39 | c1ccc(OCc2nn3c(-c4ccncc4)nnc3s2)cc1 | 3.16 µM [falling, partial curve]
40 | O=C1Nc2cc(Cl)ccc2C1(N1CCNCC1)C(F)(F)F (configuration not stated) | 2 µM [falling, partial curve]
41 | CCOc1ccc(OCC)c(NC(=O)CN2CCN(c3cccc(C)c3)CC2)c1 | 2.51 µM [falling, partial curve, poor fit]
42 | CCC(=O)Nc1ccc(C(=O)Nc2ccc(OC)cc2[N+](=O)[O-])cc1 | 0.0224 µM [falling, full curve, poor fit]
43 | CCOC(=O)N1CCC(NC(=O)C2CCN(S(=O)(=O)N3CCC(C)CC3)CC2)CC1 | 0.0501 µM [falling, full curve, poor fit]
44 | O=C(Nc1ccc(O)c(-c2nc3ccccc3o2)c1)c1sc2ccccc2c1Cl | 14.1 µM [rising, partial curve]
45 | NC(=O)C1(N2CCCCC2)CCN(CC(=O)Nc2ccccc2-c2ccccc2)CC1 | 0.112 µM [rising, full curve, poor fit]
46 | COc1ccc(NC(=O)C2C(=O)N(C)C3(C)CC2c2ccccc2O3)cc1 (configuration not stated) | 2.51 µM [rising, full curve, poor fit]

As entered above.
CC(=O)c1sc(Nc2ccccn2)nc1C | AC50: 12.6 µM [rising, partial curve]
COc1ccc(NC(=O)CCCSc2nc(-c3ccco3)cc(C(F)(F)F)n2)cc1OC | AC50: 0.126 µM [rising, partial curve]

Rewritten with each value named: 3 of the compounds above.
CCOC(=O)c1nc(Nc2ccc(C(C)=O)cc2)c2ccccc2n1
  AC50: 25.1 µM [rising, single point]
COc1cccc(Cn2c(Oc3cc(C)cc(C)c3)nc3c2c(=O)n(C)c(=O)n3C)c1
  AC50: 31.6 µM [rising, single point]
CCn1c(N2CCN(C(=O)NC3CCCCC3)CC2)nc2ccccc21
  AC50: 31.6 µM [falling, single point]

Next part

Row | Compound | AC50
47 | CCCS(=O)(=O)N1CCN(Cc2ccncc2)CC1 | 1.58 µM [falling, full curve, poor fit]
48 | CC(C)N1CC(O)=C(c2nc3ccccc3c(=O)[nH]2)C1=N | 10 µM [falling, partial curve, poor fit]
49 | CCOC(=O)Cn1c(=S)[nH]c2c(oc3ccc(Cl)cc32)c1=O | 3.16 µM [rising, single point]
50 | COc1ccc(NS(=O)(=O)c2cccc(-c3nnc4n3CCCCC4)c2)cc1 | 0.501 µM [falling, full curve]
51 | CCOc1ccc(C(=O)N2CCSC2=S)cc1 | 0.0794 µM [falling, full curve, poor fit]
52 | CC1=CC(C)(C)NC(=S)N1c1cccc2ccccc12 | 0.251 µM [falling, single point]
53 | COc1ccc(C(=O)N2CC3(C)CC2CC(C)(C)C3)cc1OC (configuration not stated) | 2.51 µM [falling, partial curve]
54 | Cc1cc(C(=O)OC2CCOC2=O)c2ccccc2n1 (configuration not stated) | 5.01 µM [rising, single point]
55 | Cc1ccccc1N1CCN(CCCOc2ccc3c(C)cc(=O)oc3c2)CC1 | 0.631 µM [falling, full curve, poor fit]
56 | Cn1ncc2c(=O)n(CC(=O)NC34CC5CC(CC(C5)C3)C4)cnc21 | 3.16 µM [falling, single point]
57 | CC1C(C)C(O)(c2ccccc2)CCN1C (configuration not stated) | 5.01 µM [falling, single point]
58 | COC(=O)c1ccccc1NC(=O)c1cc2ncc(Br)cn2n1 | 0.0891 µM [falling, full curve]
59 | CCN1C(=O)/C(=C2/C=CC=CN2C)OC1=S | 2 µM [falling, partial curve]
60 | CCOCC(O)CSCc1ccc(Cl)cc1 (configuration not stated) | 0.282 µM [falling, full curve, poor fit]
61 | CCOC(=O)CNC(=O)C1c2cc(OC)c(OC)cc2C(=O)N(C)C1c1ccccc1F (configuration not stated) | 3.98 µM [falling, full curve]
62 | CCC1Oc2ccc(C)cc2N(CC(=O)N(Cc2cccnc2)Cc2cccc(F)c2)C1=O (configuration not stated) | 12.6 µM [falling, single point]
63 | CC(Sc1cnc2ccccc2n1)C(=O)O (configuration not stated) | 10 µM [rising, partial curve]
64 | Cc1oc2c(c1C(=O)NCc1cc(C(=O)O)co1)CCCC2 | 0.126 µM [falling, full curve, poor fit]
65 | CCOc1ccccc1-n1nnnc1SCC(=O)Nc1cc(C)on1 | 5.01 µM [rising, single point]
66 | Cc1cc(SCNC(=O)c2ccccc2)ncn1 | 2 µM [falling, full curve]
67 | O=C(Cn1nnc(-c2ccc(N3CCOCC3)cc2)n1)OC1CCCCC1 | 0.631 µM [rising, partial curve, poor fit]

From PubChem BioAssay AID901 (National Center for Advancing Translational Sciences (NCATS), 2007)
